In US9803002B2, “Anti-wall teichoic antibodies and conjugates” (Genentech, Inc., priority 2013, dated 2017):
Some entries share one result that the patent states for a list of compounds.

Tested on: MRSA (USA300)
Assay: Intravenous infection model in CB17.SCID mice reconstituted with human IgG
Type: in vivo, mouse
Conditions: single IV dose day 1 post infection, sacrificed day 4
Method: To confirm that the AAC would be effective in the presence of competing human antibodies in vivo, the in vivo infection model was modified to generate mice that express normal levels of human IgG in the serum. […] Four days after infection the bacterial load in the kidneys (FIG. 10C) was assessed.
Efficacy of the AAC was compared with that of treatment with vancomycin, the current standard of care treatment for MRSA infections. […] CB17.SCID mice were reconstituted with human IgG using a dosing regimen optimized to yield constant levels of at least 10 mg/mL of human IgG in serum.
7 week old female mice were used for all in vivo experiments and infections were carried out by intravenous injection into the tail vein. A/J mice (Jackson Lab) were infected with a dose of 2×10^6 CFU. […] For studies examining the role of competing human IgG (SCID IVIG model), CB17.SCID mice (Charles River Laboratories, Hollister, Calif.) were reconstituted with GammaGard S/D IGIV Immune Globulin (ASD Healthcare, Brooks Ky.) using a dosing regimen optimized to achieve constant serum levels of >10 mg/mL of human IgG. IGIV was administered with an initial intravenous dose of 30 mg per mouse followed by a second dose of 15 mg/mouse by intraperitoneal injection after 6 hours, and subsequent daily dosings of 15 mg per mouse by intraperitoneal injection for 3 consecutive days. […]

thio-S6078 v4 HC-Cys LC-Cys-MC-vc-PAB-(dimethylpipBOR) [AAC-171]
reduction of bacterial burdens in 2 kidneys: more than 10,000 fold

thio-S6078 v4 HC-CYS, LC-CYS-MC-vc-PAB-(piperazBOR) [AAC-172]
reduction of bacterial burdens in 2 kidneys: more than 10,000 fold
